Reference: PubChem BioAssay AID1347075 (National Center for Advancing Translational Sciences (NCATS), 2019)
The whole screen tested about 400,000 compounds, of which about 5,500 (1.4%) were called active. Inconclusive means that the source gave no clear call. Such entries were picked first, then a sample of the others. Calls follow the shape of the dose curve; as a rule, active = well fitted cell-killing curve with a large enough effect; inconclusive = small, poorly fitted or top-dose-only effect, or effect the other way; inactive = flat fitted curve, though single readings scatter. Potencies beside an inconclusive call are fits to weak or partial responses and may not hold up.

Experiment: qHTS assay for MDR1-selective chemotherapeutics: Primary screen using the parental adenocarcinoma cell KB-3-1; also: nearly all actives have a fitted effect of over 60% in size
Conditions: KB-3-1 viability, CellTiter-Glo ATP luminescence, 72 h; activity change, negative = cytotoxic: at 46.1 µM (top of the series)
Outline: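 Multi-concentration cytotoxicity screen in KB-3-1 cells grown in DMEM lacking phenol red with 10% FBS. After 72 h at 37 °C with compound, ATP-dependent luminescence was recorded.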
% is scaled to controls: 0 for no effect and ±100 for the full control effect; potency is read from the fitted curve at half-maximal effect.

| Structure (SMILES) | Potency | activity change, negative = cytotoxic |
| --- | --- | --- |
| Cn1nc(C(C)(C)C)cc1C(=O)N1CCCCC1c1cc(C(=O)NCc2ccc(F)cc2)no1 (stereo unspecified) | inconclusive: 29.1 µM [cytotoxic, single point] | – |
| Cn1cnc([N+](=O)[O-])c1Oc1cccc2ccccc12 | active: 20.6 µM | – |
| O=C1CN(C(=O)COC(=O)CNS(=O)(=O)/C=C/c2ccccc2)c2ccccc2N1 | inactive | – |
| C(=Cc1nc2ccccc2o1)c1ccc2c(c1)OCO2 | inconclusive: 20.6 µM [cytotoxic, single point] | – |
| CCc1ccc(C(=O)COC(=O)c2nn(C)c(=O)c3ccccc23)cc1 | inconclusive: 0.0092 µM [rising, full curve] | – |
| CC(C)NC(=O)C1(C)CSCC(=O)N1C1CC1 (stereo unspecified) | inactive | – |
| COc1ccc(-c2cc(C(=O)N3CCOCC3)c3ccccc3n2)cc1OC | inconclusive: 25.9 µM [rising, single point] | – |
| O=C(Cn1cnc2c(OCc3ccccc3)ncnc21)NCc1ccc2[nH]ccc2c1 | inconclusive: 29.1 µM [cytotoxic, single point] | – |
| OCC[C@@H]1C[C@H](O)[C@@H](O)[C@]2(OCc3cc(C(F)(F)F)ccc32)O1 | inactive | – |
| Cn1nc(C(=O)NNC(=O)CCc2ccccc2Cl)c2ccccc2c1=O | inactive | – |
| COc1ccc(C(=O)Nc2ccc(C(=O)Nc3nccs3)cc2)cc1[N+](=O)[O-] | inconclusive: 25.9 µM [rising, single point] | – |
| CCc1c(C)nc2ncnn2c1N1CCCC(C(=O)NCCc2ccc(OC)cc2)C1 (stereo unspecified) | inconclusive: 16.4 µM [cytotoxic, single point] | – |
| CC1=Nc2cc(C(=O)NCc3ccccc3Cl)ccc2Sc2c(C)ccc(C)c21 | active: 1.03 µM | – |
| CN(c1ccccc1)S(=O)(=O)c1ccc(C(=O)NCc2ccccc2CN2CCCC2)cc1 | inconclusive: 29.1 µM [cytotoxic, single point] | – |
| Cc1ccc(C(=O)NNC(=O)c2ccco2)cc1 | inactive | – |
| COc1ccc(-c2n[nH]c3c2C(c2ccc(OC)c(OC)c2)N(c2ccccc2)C3=O)cc1 (stereo unspecified) | inconclusive: 29.1 µM [cytotoxic, single point] | – |
| O=C(Nc1ccc2ccccc2c1)c1ccc(Cl)cc1 | inactive | – |
| CCc1cc(OCCCSc2nc(C)cc(=O)[nH]2)ccc1Cl | inconclusive: 18.4 µM [cytotoxic, partial curve] | – |
| CCc1ccc(NCc2cc3c(C)nn(-c4ccccc4)c3[nH]c2=O)cc1 | inactive | – |
| O=C(CNC(=O)c1ccc(F)cc1)OCc1cc(=O)n2nc(C3CC3)sc2n1 | inactive | – |
| CCOc1ccccc1-c1cc(C(=O)N/N=C/c2ccc(O)c(OC)c2)c2ccccc2n1 | inconclusive: 20.6 µM [cytotoxic, partial curve] | – |
| CCc1nc2nc(C)c(NS(=O)(=O)c3ccc(C(C)(C)C)cc3)c(=O)n2[nH]1 | inactive | – |
| CCCN(C(=O)/C=C/c1ccco1)c1c(N)n(Cc2ccccc2)c(=O)[nH]c1=O | inconclusive: 0.0259 µM [rising, full curve] | – |
| CC(C)CNC(=O)c1coc(=O)c(Br)c1 | active: 6.31 µM | – |

Arranged by count of non-hydrogen atoms (ascending): part of the list above

| Structure (SMILES) | Potency | activity change, negative = cytotoxic |
| --- | --- | --- |
| CCc1ccc(C(=O)COC(=O)c2nn(C)c(=O)c3ccccc23)cc1 | inconclusive: 0.0092 µM [rising, full curve] | – |
| CCc1ccc(NCc2cc3c(C)nn(-c4ccccc4)c3[nH]c2=O)cc1 | inactive | – |
| COc1ccc(-c2cc(C(=O)N3CCOCC3)c3ccccc3n2)cc1OC | inconclusive: 25.9 µM [rising, single point] | – |

Going on with the list:

| Structure (SMILES) | Potency | activity change, negative = cytotoxic |
| --- | --- | --- |
| CCCCCC(=O)Nc1cccc(C2=NOC3(C2)C[C@@H](C(N)=O)N(C(=O)CC(c2ccccc2)c2ccccc2)C3)c1 (stereo partly specified) | active: 16.4 µM | – |
| O=C(CNC(=O)C1CCCCC1)OCc1ccccc1 | inconclusive: 11.6 µM [rising, partial curve] | – |
| COc1ccc(/C=N/NC(=O)CNC(=O)C2COc3ccccc3O2)cc1OC (stereo unspecified) | inconclusive: 11.6 µM [rising, partial curve] | – |
| CCCCn1nc(C(=O)N(CC(C)C)c2c(N)n(CCCC)c(=O)[nH]c2=O)c2ccccc2c1=O | inconclusive: 18.4 µM [rising, partial curve, poor fit] | – |
| Cc1nn(Cc2ccccc2)c(Cl)c1/C=N/NC(=O)c1cccnc1 | inactive | – |
| COC(=O)[C@]12CCCCC=C1N(Cc1ccc3c(c1)OCO3)C(=O)[C@H](CC(=O)NCc1cccc3ccccc13)C2 | inconclusive: 29.1 µM [cytotoxic, single point] | – |
| C#CC[N+](C)(C)CCCCCCCCCCCC | active: 2.06 µM | – |
| CC1Cc2ccccc2N1C(=S)NC(=O)c1cccc(Br)c1 (stereo unspecified) | inconclusive: 14.6 µM [cytotoxic, partial curve] | – |
| O=C(OCc1cc2ccccc2[nH]c1=O)c1ccccc1 | inconclusive: 16.4 µM [rising, single point] | – |
| O=C(Nc1ccc([N+](=O)[O-])cc1Cl)c1cc(Cl)cc(Cl)c1O | inconclusive: 18.4 µM [cytotoxic, partial curve, poor fit] | – |
| COc1ccc(-c2nc(C)c(CCNS(=O)(=O)c3cc(Cl)ccc3Cl)s2)cc1 | active: 14.6 µM | – |
| CCOC(=O)c1sc2ncn(CC(=O)Nc3ccc(OCC)cc3)c(=O)c2c1C | inactive | – |
| CC(=O)c1sc2nc(-c3cccs3)ccc2c1N | inconclusive: 29.1 µM [cytotoxic, single point] | – |
| CCc1ccc(/C=C2/C(=O)N(c3ccccc3)C(=S)N2CC(=O)OC)s1 | inconclusive: 18.4 µM [cytotoxic, single point] | – |
| O=C(CCNS(=O)(=O)c1ccccc1F)NCc1ccc2c(c1)OCO2 | inactive | – |
| O=C1N(c2cccc(Cl)c2)C(c2ccc(Cl)cc2)N2CCCN12 (stereo unspecified) | inconclusive: 18.4 µM [cytotoxic, partial curve, poor fit] | – |
| Nc1c(C(=O)O)ccc2c1C(=O)c1ccccc1C2=O | inconclusive: 29.1 µM [cytotoxic, single point] | – |
| CC1CCc2nc3sc4c(c3c(N)c2C1)CCCC4 (stereo unspecified) | inconclusive: 29.1 µM [cytotoxic, single point] | – |
| Cc1ccc(C)c(OCCC(=O)OCC(=O)NCCNC(=O)COC(=O)CCOc2cc(C)ccc2C)c1 | inactive | – |
| Cn1c2c(sc1=O)CCC2 | – | inconclusive: 24.1% |
| CCCCn1c(=N)n(CC(O)COc2cccc(C)c2)c2ccccc21 (stereo unspecified) | active: 20.6 µM | – |
| C/C(=N\NC(=O)c1nnn(-c2nonc2N)c1CN1CCc2ccccc21)c1ccccc1O | inconclusive: 23.1 µM [cytotoxic, single point] | – |
| COc1cc(/C=N/Nc2ccc(C(F)(F)F)cn2)cc(OC)c1O | inconclusive: 18.4 µM [cytotoxic, single point] | – |
| CCOC(=O)CN1N=C(/C=C/c2ccc(OC)cc2)CCC1=O | inconclusive: 11.6 µM [cytotoxic, partial curve] | – |

| Structure (SMILES) | Potency | activity change, negative = cytotoxic |
| --- | --- | --- |
| COc1ccc(C(=O)C2CCCN(Cc3sc(N4CCCC4)nc3Cl)C2)c(OC)c1 (stereo unspecified) | inconclusive: 29.1 µM [cytotoxic, single point] | – |
| Cc1ccc(C)c(NC(=O)CN(C)C(=O)c2cccc(S(=O)(=O)N3CCN(Cc4ccccc4)CC3)c2)c1 | inconclusive: 32.6 µM [cytotoxic, single point] | – |
| CC(NC(=O)C1CC1)C(c1cccs1)N1CCN(c2ccccc2)CC1 (stereo unspecified) | inactive | – |
| COc1ccc(NC(=O)COc2ccc(N(C)S(=O)(=O)c3ccc(Cl)cc3)cc2)cc1OC | active: 20.6 µM | – |
| O=C(O)CSc1cc(C(=O)c2ccccc2O)cn2c(=O)c3c(-c4ccccc4)csc3nc12 | inactive | – |
| COc1ccc(/C=N/NC(=O)CCC(=O)Nc2ccccc2)cc1OC | inactive | – |
| CC(Sc1nc2ccccc2c(=O)n1C)C(=O)NC1CCCCC1C (stereo unspecified) | inconclusive: 2.06 µM [cytotoxic, full curve, poor fit] | – |
| CCC(=O)N1CCN(c2ccc(NC(=O)c3cc4ccccc4o3)cc2)CC1 | inconclusive: 29.1 µM [cytotoxic, single point] | – |
| CCCn1c(C)cc(C(=O)COc2ncnc3sccc23)c1C | inconclusive: 16.4 µM [cytotoxic, single point] | – |
| NCC(c1ccccc1)(c1ccccc1)c1ccccc1 | inconclusive: 29.1 µM [cytotoxic, single point] | – |
| COc1cc(NC(=O)C[n+]2ccc(C(=O)c3ccccc3)cc2)cc(OC)c1 | inconclusive: 29.1 µM [cytotoxic, single point] | – |
| Clc1ccc(/C=C/c2ccc3ccccc3n2)c(Cl)c1 | inconclusive: 20.6 µM [rising, partial curve] | – |
| Cc1cccc(N2C(=O)CSC23C(=O)N(CC(=O)Nc2cccc(Cl)c2)c2ccccc23)c1 (stereo unspecified) | inconclusive: 25.9 µM [cytotoxic, single point] | – |
| O=C(NCc1ccco1)C(c1cccs1)N(C(=O)C1COc2ccccc2O1)c1cccc(O)c1 (stereo unspecified) | inconclusive: 20.6 µM [cytotoxic, single point] | – |
| O=C1c2cc(N3CCCC3)c([N+](=O)[O-])cc2C(=O)N1c1ccccc1 | inconclusive: 14.6 µM [rising, partial curve] | – |
| CCOc1ccc(C(=O)C[n+]2ccccc2C)cc1 | inactive | – |
| COc1ccc(/C=N/Nc2ncnc3sc4c(c23)CCCC4)cc1O | inconclusive: 29.1 µM [cytotoxic, single point] | – |
| O=C(NC1CCCCCC1)C1c2ccccc2C(=O)N1Cc1ccc(F)cc1 (stereo unspecified) | inactive | – |
| COc1ccc(C(CC(=O)NCc2ccco2)c2ccc(F)cc2)cc1 (stereo unspecified) | inactive | – |
| COc1ccc(N2CCN(C(c3nnnn3CCc3ccccc3)C(C)C)CC2)cc1 (stereo unspecified) | inconclusive: 14.6 µM [cytotoxic, partial curve] | – |
| Cc1cc(C)cc(NC(=O)CSc2ccc(-c3ccco3)nn2)c1 | inconclusive: 10.3 µM [cytotoxic, partial curve] | – |
| COC(=O)/C=C\C(=O)Nc1cccc([N+](=O)[O-])c1 | inconclusive: 18.4 µM [cytotoxic, single point] | – |
| CCN(CC)CCCNC(=O)CSc1nc2c(c(C(F)(F)F)n1)CCc1ccccc1-2 | inconclusive: 25.9 µM [cytotoxic, single point] | – |
